These are yes or no findings as the source states them, for the method shown. Some entries that bind do so weakly or less than the wild type.
Target: cynomolgus TREM1 on cells (cynomolgus)
Assay: flow cytometry, directly conjugated antibody on red-cell-lysed cynomolgus blood, gated on monocytes, Fc receptors blocked; TREM1 taken as the target of PI-4170 (not given)

B1: PI-4170 (antibody, human IgG1, kappa, V domains shown)
VH: EVQLVESGGGLVQPGGSLKLSCAASGFTFSTYAMHWVRQASGKGLEWVGRIRTKSSNYATYYAASVKGRFTISRDDSKNTAYLQMNSLKTEDTAVYYCTRDMGIRRQFAYWGQGTLVTVSS
VL: DIVLTQSPDSLAVSLGERATINCRASESVDTFDYSFLHWYQQKPGQPPKLLIYRASNLESGVPDRFSGSGSGTDFTLTISSLQAEDVAVYYCQQSNEDPYTFGQGTKLEIKR
- binding: binds
